Measurements as given in the supplement of paper PMC10849652.
Some of the results follow. Residues, ends and D or L forms follow the SMILES beside them. *: point of attachment. Cbz = O=C(OCc1ccccc1)*

Chains of the proteins cited; added tags and fusions are not shown. Lines headed by an entry give the natural chain unless they say otherwise; changes in a name come on top.
UniProt Q03014: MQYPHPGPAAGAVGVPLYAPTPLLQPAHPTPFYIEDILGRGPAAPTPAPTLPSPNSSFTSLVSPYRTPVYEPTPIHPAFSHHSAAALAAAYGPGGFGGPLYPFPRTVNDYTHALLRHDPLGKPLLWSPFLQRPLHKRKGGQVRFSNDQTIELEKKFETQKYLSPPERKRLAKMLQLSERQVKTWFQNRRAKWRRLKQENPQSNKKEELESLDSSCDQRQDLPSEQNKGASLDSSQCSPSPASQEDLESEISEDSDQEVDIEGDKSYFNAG
UniProt Q14527: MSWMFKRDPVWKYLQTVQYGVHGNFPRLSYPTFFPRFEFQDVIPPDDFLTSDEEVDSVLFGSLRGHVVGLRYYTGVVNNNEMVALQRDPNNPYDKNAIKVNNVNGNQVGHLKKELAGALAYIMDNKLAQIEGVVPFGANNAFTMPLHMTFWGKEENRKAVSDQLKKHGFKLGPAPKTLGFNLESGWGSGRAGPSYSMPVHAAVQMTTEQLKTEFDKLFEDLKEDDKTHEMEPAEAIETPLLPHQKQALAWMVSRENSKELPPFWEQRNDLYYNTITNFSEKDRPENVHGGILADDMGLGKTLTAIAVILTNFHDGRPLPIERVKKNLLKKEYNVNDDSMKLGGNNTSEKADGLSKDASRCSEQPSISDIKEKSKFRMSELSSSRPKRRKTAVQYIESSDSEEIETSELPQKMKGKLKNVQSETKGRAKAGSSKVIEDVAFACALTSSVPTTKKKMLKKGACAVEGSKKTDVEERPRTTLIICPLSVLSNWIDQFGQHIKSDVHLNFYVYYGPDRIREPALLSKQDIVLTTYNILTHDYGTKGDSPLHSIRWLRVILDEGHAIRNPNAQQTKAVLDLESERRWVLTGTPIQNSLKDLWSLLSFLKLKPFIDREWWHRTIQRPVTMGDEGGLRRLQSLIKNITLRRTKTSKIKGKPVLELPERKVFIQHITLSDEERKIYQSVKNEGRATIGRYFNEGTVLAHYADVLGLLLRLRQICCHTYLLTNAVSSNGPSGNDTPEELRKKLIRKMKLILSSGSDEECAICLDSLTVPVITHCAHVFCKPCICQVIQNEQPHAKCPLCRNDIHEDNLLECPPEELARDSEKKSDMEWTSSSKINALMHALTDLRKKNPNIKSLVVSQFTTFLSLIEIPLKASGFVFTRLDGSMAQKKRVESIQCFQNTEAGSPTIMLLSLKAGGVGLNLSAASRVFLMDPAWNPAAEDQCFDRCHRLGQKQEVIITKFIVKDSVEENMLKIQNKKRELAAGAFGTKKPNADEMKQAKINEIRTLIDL
UniProt P04035: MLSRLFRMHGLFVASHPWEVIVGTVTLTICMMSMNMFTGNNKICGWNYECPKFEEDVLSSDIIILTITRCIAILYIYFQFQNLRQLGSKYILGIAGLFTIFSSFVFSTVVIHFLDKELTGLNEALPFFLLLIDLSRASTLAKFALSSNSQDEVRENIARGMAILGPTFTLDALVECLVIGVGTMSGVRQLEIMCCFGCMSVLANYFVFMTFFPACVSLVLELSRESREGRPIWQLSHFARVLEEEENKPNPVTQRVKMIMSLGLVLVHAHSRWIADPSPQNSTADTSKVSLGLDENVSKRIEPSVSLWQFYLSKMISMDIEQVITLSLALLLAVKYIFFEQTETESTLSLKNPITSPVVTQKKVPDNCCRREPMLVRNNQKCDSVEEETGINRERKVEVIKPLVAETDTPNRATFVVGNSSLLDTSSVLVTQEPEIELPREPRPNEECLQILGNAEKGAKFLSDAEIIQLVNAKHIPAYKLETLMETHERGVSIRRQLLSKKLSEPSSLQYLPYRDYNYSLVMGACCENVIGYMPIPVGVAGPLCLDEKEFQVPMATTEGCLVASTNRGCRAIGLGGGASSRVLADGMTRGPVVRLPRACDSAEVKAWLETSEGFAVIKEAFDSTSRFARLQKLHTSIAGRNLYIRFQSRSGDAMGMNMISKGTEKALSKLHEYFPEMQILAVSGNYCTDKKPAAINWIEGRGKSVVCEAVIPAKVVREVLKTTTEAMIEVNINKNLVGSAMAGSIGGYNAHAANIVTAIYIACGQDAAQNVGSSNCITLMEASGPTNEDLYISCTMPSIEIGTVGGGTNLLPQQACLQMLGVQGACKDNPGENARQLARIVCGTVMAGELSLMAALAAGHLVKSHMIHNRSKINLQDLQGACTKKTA
UniProt O60921: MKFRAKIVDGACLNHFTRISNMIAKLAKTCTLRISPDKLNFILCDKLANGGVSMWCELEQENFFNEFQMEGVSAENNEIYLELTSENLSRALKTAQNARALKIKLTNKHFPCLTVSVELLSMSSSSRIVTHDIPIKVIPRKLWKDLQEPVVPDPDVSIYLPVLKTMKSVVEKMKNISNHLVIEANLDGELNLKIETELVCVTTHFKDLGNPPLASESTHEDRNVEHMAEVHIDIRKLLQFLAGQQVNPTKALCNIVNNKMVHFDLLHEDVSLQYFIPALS
UniProt Q14773: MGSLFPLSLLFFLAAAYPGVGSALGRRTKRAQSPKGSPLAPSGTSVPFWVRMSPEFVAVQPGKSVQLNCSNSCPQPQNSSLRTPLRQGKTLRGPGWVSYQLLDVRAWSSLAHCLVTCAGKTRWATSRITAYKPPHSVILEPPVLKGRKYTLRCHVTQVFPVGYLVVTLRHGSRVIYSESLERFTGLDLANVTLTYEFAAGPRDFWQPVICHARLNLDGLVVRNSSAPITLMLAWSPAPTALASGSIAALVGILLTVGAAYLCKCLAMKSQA
UniProt O14964, whole entry, looked up: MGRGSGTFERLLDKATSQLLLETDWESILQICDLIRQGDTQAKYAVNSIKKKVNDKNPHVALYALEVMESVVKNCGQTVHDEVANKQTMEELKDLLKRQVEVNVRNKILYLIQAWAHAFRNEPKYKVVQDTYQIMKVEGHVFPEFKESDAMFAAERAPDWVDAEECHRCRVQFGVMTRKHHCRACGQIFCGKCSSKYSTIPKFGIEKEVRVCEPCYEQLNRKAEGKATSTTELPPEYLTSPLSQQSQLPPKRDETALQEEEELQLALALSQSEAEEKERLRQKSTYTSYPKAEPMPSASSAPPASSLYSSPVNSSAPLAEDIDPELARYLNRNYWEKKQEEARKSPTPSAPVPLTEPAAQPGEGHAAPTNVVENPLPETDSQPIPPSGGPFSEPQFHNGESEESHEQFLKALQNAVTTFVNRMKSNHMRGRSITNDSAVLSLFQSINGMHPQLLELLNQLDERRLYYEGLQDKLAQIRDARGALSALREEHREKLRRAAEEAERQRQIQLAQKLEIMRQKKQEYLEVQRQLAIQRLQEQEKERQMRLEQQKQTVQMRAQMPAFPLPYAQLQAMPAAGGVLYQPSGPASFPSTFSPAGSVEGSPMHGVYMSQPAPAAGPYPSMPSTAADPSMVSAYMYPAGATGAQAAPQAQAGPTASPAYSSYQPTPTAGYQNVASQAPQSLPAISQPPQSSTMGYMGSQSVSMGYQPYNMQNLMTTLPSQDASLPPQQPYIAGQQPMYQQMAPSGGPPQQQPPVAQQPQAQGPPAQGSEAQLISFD
UniProt Q86VS8: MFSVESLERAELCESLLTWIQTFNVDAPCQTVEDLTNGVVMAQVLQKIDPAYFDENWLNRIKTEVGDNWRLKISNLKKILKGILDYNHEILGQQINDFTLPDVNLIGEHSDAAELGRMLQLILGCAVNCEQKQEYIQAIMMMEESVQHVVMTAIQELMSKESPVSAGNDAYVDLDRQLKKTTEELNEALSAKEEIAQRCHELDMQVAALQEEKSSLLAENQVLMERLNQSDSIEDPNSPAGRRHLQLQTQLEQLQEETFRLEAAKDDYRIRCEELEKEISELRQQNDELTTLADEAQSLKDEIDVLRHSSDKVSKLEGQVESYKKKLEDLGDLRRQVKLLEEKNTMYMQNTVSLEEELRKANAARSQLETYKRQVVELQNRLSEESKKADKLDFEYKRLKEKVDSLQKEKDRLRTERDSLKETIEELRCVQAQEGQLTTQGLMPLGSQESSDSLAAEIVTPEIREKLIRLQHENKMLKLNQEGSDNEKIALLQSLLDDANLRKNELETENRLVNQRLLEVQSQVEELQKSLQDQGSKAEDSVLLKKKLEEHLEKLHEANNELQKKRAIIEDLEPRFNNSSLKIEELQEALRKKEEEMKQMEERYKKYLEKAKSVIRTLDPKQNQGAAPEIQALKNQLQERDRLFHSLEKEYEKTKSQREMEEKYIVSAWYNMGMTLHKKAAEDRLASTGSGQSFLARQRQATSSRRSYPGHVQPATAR
UniProt P30519: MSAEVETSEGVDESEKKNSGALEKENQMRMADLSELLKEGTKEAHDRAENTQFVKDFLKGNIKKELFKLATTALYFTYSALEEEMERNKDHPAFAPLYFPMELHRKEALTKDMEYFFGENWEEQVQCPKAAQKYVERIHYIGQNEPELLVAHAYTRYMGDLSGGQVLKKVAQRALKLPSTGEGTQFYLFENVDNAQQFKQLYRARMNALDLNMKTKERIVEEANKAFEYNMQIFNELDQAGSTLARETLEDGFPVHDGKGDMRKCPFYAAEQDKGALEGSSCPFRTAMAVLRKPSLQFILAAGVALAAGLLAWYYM
UniProt O15347: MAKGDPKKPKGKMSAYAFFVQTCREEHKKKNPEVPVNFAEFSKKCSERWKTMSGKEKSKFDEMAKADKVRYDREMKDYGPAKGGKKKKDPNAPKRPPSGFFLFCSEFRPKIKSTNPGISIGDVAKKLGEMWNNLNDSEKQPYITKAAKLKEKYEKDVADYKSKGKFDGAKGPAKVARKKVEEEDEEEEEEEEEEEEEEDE
UniProt Q96JB3: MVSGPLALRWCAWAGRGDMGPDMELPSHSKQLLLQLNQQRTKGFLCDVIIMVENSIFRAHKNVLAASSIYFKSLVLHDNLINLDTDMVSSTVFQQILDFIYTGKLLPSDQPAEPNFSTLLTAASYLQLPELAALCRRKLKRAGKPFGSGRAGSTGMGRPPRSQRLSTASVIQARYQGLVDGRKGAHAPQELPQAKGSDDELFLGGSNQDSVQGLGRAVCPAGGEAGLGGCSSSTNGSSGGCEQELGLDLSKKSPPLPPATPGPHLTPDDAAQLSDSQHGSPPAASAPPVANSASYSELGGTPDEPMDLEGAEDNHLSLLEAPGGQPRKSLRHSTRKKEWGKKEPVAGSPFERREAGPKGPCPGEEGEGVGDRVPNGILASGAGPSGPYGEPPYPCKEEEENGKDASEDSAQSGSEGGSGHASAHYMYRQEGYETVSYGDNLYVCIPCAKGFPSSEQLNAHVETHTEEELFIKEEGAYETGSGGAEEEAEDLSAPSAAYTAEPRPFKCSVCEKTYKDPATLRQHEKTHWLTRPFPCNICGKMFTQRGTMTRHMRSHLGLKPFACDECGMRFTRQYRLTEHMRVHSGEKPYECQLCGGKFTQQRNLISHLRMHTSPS
UniProt P52789: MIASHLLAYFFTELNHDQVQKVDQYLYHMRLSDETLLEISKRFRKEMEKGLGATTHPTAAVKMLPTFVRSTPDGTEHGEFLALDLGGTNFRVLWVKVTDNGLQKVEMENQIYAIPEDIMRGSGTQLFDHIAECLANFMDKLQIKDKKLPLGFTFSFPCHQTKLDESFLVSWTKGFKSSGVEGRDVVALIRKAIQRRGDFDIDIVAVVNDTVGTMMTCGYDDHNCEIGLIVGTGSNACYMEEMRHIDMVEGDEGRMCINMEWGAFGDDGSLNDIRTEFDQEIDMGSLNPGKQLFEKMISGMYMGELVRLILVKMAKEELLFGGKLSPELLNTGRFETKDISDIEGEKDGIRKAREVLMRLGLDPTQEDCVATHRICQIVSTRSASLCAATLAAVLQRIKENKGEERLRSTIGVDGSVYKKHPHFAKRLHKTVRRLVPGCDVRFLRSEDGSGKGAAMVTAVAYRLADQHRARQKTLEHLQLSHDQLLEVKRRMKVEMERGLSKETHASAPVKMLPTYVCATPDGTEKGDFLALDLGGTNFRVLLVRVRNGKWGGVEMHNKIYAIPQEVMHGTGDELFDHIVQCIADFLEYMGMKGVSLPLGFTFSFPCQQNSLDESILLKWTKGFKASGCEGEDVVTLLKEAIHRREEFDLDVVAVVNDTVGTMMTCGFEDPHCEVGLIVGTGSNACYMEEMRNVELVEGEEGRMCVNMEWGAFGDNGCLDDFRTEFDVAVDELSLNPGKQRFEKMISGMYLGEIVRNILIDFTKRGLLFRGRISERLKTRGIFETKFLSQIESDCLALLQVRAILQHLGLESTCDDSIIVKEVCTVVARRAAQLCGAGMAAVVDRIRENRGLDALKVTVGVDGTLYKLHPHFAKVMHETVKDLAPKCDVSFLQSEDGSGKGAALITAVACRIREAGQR

Assays:
Assay in all cases: log2 fold change, soluble protein after heating vs DMSO (PISA); higher = thermal stabilisation; K562 cells, 10 uM, 30 min; active = over 0.2 and 3.5 SD of the protein, either way, in both replicates (recomputed)
[1] = compound: C1COCCN1CCN2C3=CC=CC=C3N=C2NC(=O)C4=CC(=CC=C4)[N+](=O)[O-] [IRAK-1-4 Inhibitor I]
Summary of the method: (§1)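 Soluble protein was defined as the supernatant after 21,000xg for 90 min. It came from K562 cells at 2×10^6 cells/mL given 10 μM compound for 30 min, heated in aliquots for 3 min across 48°C-58°C, pooled, and extracted in PBS with 0.5% NP-40 at 4°C, and was quantified by TMTpro 16plex LC-MS/MS with equalised channel sums. Thermal stability against control samples, from duplicates, is reported as log2 fold change.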

[2] = compound: C=CC(=O)N1CCC[C@@H](n2nc(-c3ccc(Oc4ccccc4)cc3)c3c(N)ncnc32)C1 [ibrutinib]
Summary of the method: as §1

[3] = compound: CC(=O)c1cnc2ccc(-c3cc(Cl)c(O)c(Cl)c3)nc2c1N[C@H]1CC[C@H](CN(C)C)CC1
Summary of the method: as §1

[4] = compound: CC(C)(C)Cn1c(N)nc2ccc(-c3[nH]c(C(C)(C)C)nc3-c3ccc(F)cc3)nc21 [ralimetinib]
Summary of the method: as §1

[5] = compound: CC(C)(O)CC(=O)NCCn1ccc2ncnc(Nc3ccc(Oc4cccc(C(F)(F)F)c4)c(Cl)c3)c21
Summary of the method: as §1

[6] = compound: CC(C)C1=C2N=C(C=C(N2N=C1)NCC3=CC=CC=C3)NCCCCCCN
Summary of the method: as §1

[7] = compound: CC(C)C[C@@H](C=O)NC(=O)[C@H](CC(C)C)NC(=O)[C@H](CC(C)C)NC(=O)OCc1ccccc1
Summary of the method: as §1

[8] = compound: CC(C)N(C[C@H]1O[C@@H](n2cnc3c(N)ncnc32)[C@H](O)[C@@H]1O)[C@H]1C[C@@H](CCc2nc3cc(C(C)(C)C)ccc3[nH]2)C1 [pinometostat]
Summary of the method: as §1

[9] = compound: CC1=C(C2=C(C=C1)C(=O)C3=CC=CC=C3N2CCCN)C
Summary of the method: as §1

[10] = compound: CC1=C(C(CC(=O)N1)C2=CC=C(C=C2)C(F)(F)F)C(=O)NC3=C(C=C4C(=C3)C=NN4)F
Summary of the method: as §1

Row | Target | log2 fold change [1] | log2 fold change [2] | log2 fold change [3] | log2 fold change [4] | log2 fold change [5] | log2 fold change [6] | log2 fold change [7] | log2 fold change [8] | log2 fold change [9] | log2 fold change [10]
1 | HHEX (UniProt Q03014) | inactive: 0.045 | inactive: 0.059 | inactive: 0.005 | inactive: -0.059 | inactive: -0.064 | inactive: -0.113 | inactive: 0.189 | inactive: -0.075 | inactive: -0.074 | 
2 | HSPG2 (UniProt P98160) | inactive: 0.058 | inactive: -0.022 | inactive: -0.061 | inactive: 0.012 | inactive: 0.041 | inactive: 0.169 | inactive: 0.071 | inactive: 0.091 | inactive: 0.019 | inactive: -0.003
3 | HLTF (UniProt Q14527) | inactive: -0.026 | inactive: -0.028 | inactive: -0.134 | inactive: -0.016 | inactive: -0.022 | active: 0.332 | inactive: 0.109 | inactive: -0.024 | inactive: 0.176 | 
4 | HMGCR isoform 3 (UniProt P04035) | inactive: 0.037 | inactive: -0.001 | inactive: 0.022 | inactive: -0.005 | inactive: -0.023 | inactive: 0.029 | active: 0.383 | inactive: 0.014 | inactive: -0.044 | 
5 | HUS1 (UniProt O60921) | inactive: -0.002 | inactive: -0.001 | inactive: -0.019 | inactive: -0.046 | inactive: -0.048 | inactive: 0.029 | inactive: -0.022 | inactive: -0.034 | inactive: 0.033 | inactive: 0.002
6 | ICAM4 (UniProt Q14773) | inactive: -0.035 | inactive: 0.026 | inactive: -0.022 | inactive: -0.063 | inactive: 0.043 | inactive: 0.036 | inactive: 0.054 | inactive: 0.03 | inactive: -0.019 | inactive: 0.056
7 | HUWE1 (UniProt Q7Z6Z7) | inactive: -0.02 | inactive: -0.014 | inactive: 0.032 | inactive: 0.014 | inactive: -0.078 | inactive: -0.052 | inactive: 0.029 | inactive: 0.022 | inactive: -0.012 | inactive: 0.004
8 | HGS (UniProt O14964) | inactive: 0.002 | inactive: -0.011 | inactive: -0.014 | inactive: -0.002 | inactive: -0.05 | inactive: -0.078 | inactive: -0.015 | inactive: -0.022 | inactive: 0.017 | inactive: -0.001
9 | HOOK3 (UniProt Q86VS8) | inactive: 0.003 | inactive: -0.057 | inactive: -0.018 | inactive: 0.033 | inactive: -0.109 | inactive: -0.138 | inactive: 0.056 | inactive: 0.024 | inactive: 0.02 | 
10 | HMOX2 (UniProt P30519) | inactive: -0.061 | inactive: -0.035 | inactive: -0.092 | inactive: 0.081 | inactive: 0.031 | inactive: 0.08 | inactive: 0.028 | inactive: 0 | inactive: 0.012 | 
11 | HMGB3 (UniProt O15347) | inactive: 0.071 | inactive: 0.038 | inactive: 0.083 | inactive: 0.163 | inactive: -0.007 | inactive: 0.068 | inactive: 0.001 | inactive: -0.019 | inactive: 0.016 | 
12 | HIST2H3A (UniProt Q71DI3) | inactive: -0.269 | inactive: 0.081 | inactive: -0.012 | inactive: 0.292 | inactive: -0.021 | inactive: -0.225 | inactive: 0.18 | inactive: 0.29 | inactive: 0.727 | 
13 | HIC2 (UniProt Q96JB3) | inactive: -0.073 | inactive: 0.123 | inactive: 0.024 | inactive: 0.218 | inactive: 0.065 | inactive: -0.07 | inactive: -0.03 | inactive: 0.143 | inactive: 0.088 | 
14 | HK2 (UniProt P52789) | inactive: -0.007 | inactive: -0.01 | inactive: -0.096 | inactive: -0.037 | inactive: -0.046 | inactive: 0.096 | inactive: -0.022 | inactive: -0.001 | inactive: 0.034 | 
15 | HNRNPK isoform 2 (UniProt P61978) | inactive: -0.014 | inactive: -0.014 | inactive: -0.161 | inactive: -0.054 | inactive: -0.025 | active: -0.283 | inactive: 0.003 | inactive: -0.033 | inactive: -0.062 | 

From entry 9 to 10, copied from above:
Row | Target | log2 fold change [1] | log2 fold change [2] | log2 fold change [3] | log2 fold change [4] | log2 fold change [5] | log2 fold change [6] | log2 fold change [7] | log2 fold change [8] | log2 fold change [9] | log2 fold change [10]
9 | HOOK3 (UniProt Q86VS8) | inactive: 0.003 | inactive: -0.057 | inactive: -0.018 | inactive: 0.033 | inactive: -0.109 | inactive: -0.138 | inactive: 0.056 | inactive: 0.024 | inactive: 0.02 | 
10 | HMOX2 (UniProt P30519) | inactive: -0.061 | inactive: -0.035 | inactive: -0.092 | inactive: 0.081 | inactive: 0.031 | inactive: 0.08 | inactive: 0.028 | inactive: 0 | inactive: 0.012 | 
